Measured values reported in paper PMC10397212.
Results are given in words; binding and its absence hold for the method and conditions named. In cells and extracts the contact can be indirect. Some binding calls cover weakened binding; strength is not graded here.

The chains behind the UniProt entries cited, without tags or fusion partners. Where a name states a change or a piece, a line headed by the entry shows the natural chain unless it says otherwise. A line that says so, or that is headed by a name, gives the form on record, which may keep a tag or linker.
UniProt Q15075: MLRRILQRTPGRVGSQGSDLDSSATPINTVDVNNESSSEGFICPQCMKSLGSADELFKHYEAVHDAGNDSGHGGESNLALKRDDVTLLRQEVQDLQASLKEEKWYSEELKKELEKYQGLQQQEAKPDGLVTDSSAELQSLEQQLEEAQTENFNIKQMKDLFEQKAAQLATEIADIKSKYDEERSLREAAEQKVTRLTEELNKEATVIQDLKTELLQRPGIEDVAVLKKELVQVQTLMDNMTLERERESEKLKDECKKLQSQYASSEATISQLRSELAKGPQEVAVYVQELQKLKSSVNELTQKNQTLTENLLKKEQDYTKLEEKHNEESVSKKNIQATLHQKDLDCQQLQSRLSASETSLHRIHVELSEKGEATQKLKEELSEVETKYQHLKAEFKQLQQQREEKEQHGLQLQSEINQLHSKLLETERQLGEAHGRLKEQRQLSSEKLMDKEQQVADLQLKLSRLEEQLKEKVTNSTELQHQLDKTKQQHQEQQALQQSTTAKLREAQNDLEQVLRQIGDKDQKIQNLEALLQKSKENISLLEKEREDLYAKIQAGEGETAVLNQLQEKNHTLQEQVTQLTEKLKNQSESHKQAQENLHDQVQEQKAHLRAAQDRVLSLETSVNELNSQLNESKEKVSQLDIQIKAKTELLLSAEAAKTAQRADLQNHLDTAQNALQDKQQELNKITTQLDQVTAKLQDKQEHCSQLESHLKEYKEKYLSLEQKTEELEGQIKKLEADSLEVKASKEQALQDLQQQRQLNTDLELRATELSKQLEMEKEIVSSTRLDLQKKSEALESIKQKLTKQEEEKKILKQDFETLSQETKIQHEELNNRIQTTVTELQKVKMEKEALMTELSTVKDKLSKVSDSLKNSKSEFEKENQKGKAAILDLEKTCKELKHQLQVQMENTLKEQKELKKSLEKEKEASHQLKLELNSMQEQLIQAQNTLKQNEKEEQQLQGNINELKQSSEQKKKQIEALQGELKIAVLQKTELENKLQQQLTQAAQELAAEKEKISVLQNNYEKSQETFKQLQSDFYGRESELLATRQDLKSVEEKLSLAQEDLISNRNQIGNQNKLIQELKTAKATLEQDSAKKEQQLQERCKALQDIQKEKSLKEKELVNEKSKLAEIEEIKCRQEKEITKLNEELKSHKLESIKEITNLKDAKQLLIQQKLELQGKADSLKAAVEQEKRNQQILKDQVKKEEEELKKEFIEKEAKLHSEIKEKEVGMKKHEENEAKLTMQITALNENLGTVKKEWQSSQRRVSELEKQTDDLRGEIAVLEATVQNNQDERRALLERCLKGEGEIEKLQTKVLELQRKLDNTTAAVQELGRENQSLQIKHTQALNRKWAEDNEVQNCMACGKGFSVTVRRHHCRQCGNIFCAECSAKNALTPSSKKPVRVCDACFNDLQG
EEA1-CTmut TagRFP-T (Q15075, form named): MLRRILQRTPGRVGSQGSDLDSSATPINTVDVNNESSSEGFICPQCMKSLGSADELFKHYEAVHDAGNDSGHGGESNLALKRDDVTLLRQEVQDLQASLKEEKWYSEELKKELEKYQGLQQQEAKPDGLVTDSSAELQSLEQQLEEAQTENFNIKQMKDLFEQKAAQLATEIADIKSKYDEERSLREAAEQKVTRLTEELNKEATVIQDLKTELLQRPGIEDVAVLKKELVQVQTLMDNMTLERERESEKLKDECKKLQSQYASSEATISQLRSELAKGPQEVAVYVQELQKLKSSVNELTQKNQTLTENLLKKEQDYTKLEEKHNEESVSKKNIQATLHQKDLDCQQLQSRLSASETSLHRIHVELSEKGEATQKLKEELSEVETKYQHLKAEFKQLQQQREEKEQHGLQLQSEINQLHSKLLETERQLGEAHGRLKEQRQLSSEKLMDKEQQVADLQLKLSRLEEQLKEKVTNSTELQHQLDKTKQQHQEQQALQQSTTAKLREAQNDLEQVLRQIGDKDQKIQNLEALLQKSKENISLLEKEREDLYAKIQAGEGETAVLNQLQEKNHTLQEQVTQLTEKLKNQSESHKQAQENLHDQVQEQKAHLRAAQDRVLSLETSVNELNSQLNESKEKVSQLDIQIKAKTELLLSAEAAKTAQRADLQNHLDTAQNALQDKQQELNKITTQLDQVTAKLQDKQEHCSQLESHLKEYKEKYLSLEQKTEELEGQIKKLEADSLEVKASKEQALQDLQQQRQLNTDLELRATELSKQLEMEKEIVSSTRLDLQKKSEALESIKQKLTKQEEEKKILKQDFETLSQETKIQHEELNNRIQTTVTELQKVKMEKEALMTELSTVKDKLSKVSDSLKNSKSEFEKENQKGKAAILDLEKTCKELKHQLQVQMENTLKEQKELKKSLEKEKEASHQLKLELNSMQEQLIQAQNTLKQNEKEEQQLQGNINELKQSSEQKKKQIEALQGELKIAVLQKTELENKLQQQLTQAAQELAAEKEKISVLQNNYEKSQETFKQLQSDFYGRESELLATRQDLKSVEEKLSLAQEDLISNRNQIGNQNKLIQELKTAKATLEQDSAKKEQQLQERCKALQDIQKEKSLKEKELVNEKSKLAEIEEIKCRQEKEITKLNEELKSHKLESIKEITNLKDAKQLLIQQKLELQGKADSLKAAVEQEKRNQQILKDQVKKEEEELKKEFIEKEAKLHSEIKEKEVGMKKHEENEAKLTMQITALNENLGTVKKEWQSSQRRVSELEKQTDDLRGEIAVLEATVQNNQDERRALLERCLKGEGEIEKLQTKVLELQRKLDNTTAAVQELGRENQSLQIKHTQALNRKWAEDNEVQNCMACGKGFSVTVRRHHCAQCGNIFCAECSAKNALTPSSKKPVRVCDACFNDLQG

What was measured:
EGFP-Rab5 = EGFP-Rab5 (UniProt P20339); assay: FRET or BRET; FLIM-FRET in fixed (4% paraformaldehyde) transfected RPE1 cells; EGFP donor lifetime read with an RFP acceptor; pixel-wise lifetime fitting; Leica SP8 Falcon; also done on SAR405-treated cells
mRFP-Rab5 [1] = molecular target: T1, mRFP-Rab5 (UniProt P18066); assay: FRET or BRET; live-cell FLIM-FRET in transfected RPE1 cells; EGFP lifetime fitted with two components (τ1 = 1.006 ns, τ2 = 2.600 ns) and photons split into an 'NT EEA1' and a 'CT EEA1' channel
T1 sequence: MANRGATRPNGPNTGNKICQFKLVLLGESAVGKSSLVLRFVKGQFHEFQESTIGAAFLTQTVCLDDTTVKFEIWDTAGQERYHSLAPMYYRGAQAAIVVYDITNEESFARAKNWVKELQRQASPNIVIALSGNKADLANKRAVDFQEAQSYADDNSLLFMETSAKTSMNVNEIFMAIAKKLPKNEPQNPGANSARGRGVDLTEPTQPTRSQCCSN

mRFP-Rab5 [2] = molecular target: T1, mRFP-Rab5; assay: FRET or BRET; FLIM-FRET in fixed (4% paraformaldehyde) transfected RPE1 cells; EGFP donor lifetime read with an RFP acceptor; pixel-wise lifetime fitting; Leica SP8 Falcon; also done on SAR405-treated cells

Row | binding (EGFP-Rab5) | binding (mRFP-Rab5 [1]) | binding (mRFP-Rab5 [2]) | Substance
1 | binds |  |  | EEA1 TagRFP-T (from UniProt Q15075 1-1411)
2 | binds |  |  | EEA1-CTmut TagRFP-T (from UniProt Q15075 1-1411)
3 |  | binds | binds | EGFP-EEA1 (from UniProt Q15075 1-1411)
